Source: US12410228B2 (UNIVERSITY OF UTAH RESEARCH FOUNDATION, priority 2016, dated 2025)

Assay: general procedure: Fmoc solid-phase peptide synthesis; Fmoc-Cys(Trt)-Rink Amide MBHA resin (0.21 mmol/g) for chain A; Fmoc-Arg(Pbf)-Wang resin (0.4 mmol/g) for chain B; HATU/DIEA
Settings: for isolated mass: whole synthesis, scale 0.1 mmol

## GVVyHCCHRPCSNAEFKKYC*
  isolated mass: 18.7 mg

## TFDTOKHRCGSyITNSYMDLCYR
  isolated mass: 25.9 mg

## sCon-Ins G1[GluA4, ProB3, GluB10] (partially folded)
Oxidative folding step
  oxidative folding yield: 28%

## sCon-Ins G1[GluA4, ProB3, GluB10]
Oxidative folding step, RP-HPLC (214 and 280 nm) and capillary electrophoresis, several disulfide bridges
  final HPLC purity: 97%
Oxidative folding step, several disulfide bridges
  oxidative folding yield: 14%

## Con-Ins G1 (partially folded)
Oxidative folding step, based on the starting amount of 7 umol
  oxidative folding yield: 12.1%
